{
  "source": "patent US7146204B2",
  "about": "“Method and apparatus for quantitatively evaluating a kidney” (Yeda Research and Development Co., Ltd., priority 2002, dated 2006)",
  "key": {"rat kidney [1]": {"system": "rat kidney", "experiment": "steady state diuresis 23Na MRI of corticomedullary sodium gradient", "format": "in vivo", "settings": "diuretic steady state", "experimental": "Materials and Methods—Animals: Studies were performed on female Lewis rats, 2–4 months old and weighing 250–300 g, that had free access to food and water. Before MRI scanning, the rats were anesthetized by an intraperitoneal injection of sodium pentobarbital at a dosage of 0.04 mg/g body wt. All animal protocols and maintenance procedures were in accordance with the guidelines of the Committee on Animals of the Weizmann Institute of Science, and were approved by this Committee.\nMannitol solution (20%, 1 ml) and saline solution (0.9% NaCl, 1 ml) were injected as a bolus into the tail vein. Only one diuretic was injected into each rat.\nIn vivo MRI: ^1H and ^23Na spectra and images were recorded at 200 and 53 MHz, respectively with a 4.7 T Biospec spectrometer (Bruker, Rheinstetten, Germany) using a home-built 3 cm double-tuned surface coil. […] 3D ^1H gradient echo images were recorded to localize the exact kidney position, using TE/TR of 6/30 ms FOV of 12×12×3.2 cm and a matrix of 256×256×32. For defining the regions of interest (ROI), 3D ^1H images were recorded with the same spatial resolution as that of the sodium images.\nIn the “steady state” studies, sodium images were recorded prior to injection of the diuretic (control measurement) and fifteen minutes after its injection. […]"}, "rat kidney [2]": {"system": "rat kidney", "experiment": "dynamic 23Na MRI of renal sodium distribution after bolus injection of diuretic", "format": "in vivo", "settings": "dynamic study", "experimental": "Materials and Methods—Animals: Studies were performed on female Lewis rats, 2–4 months old and weighing 250–300 g, that had free access to food and water. […] All animal protocols and maintenance procedures were in accordance with the guidelines of the Committee on Animals of the Weizmann Institute of Science, and were approved by this Committee. Diuretics: […] Only one diuretic was injected into each rat. […] Image analysis: Analysis of the kidney images was performed on selected regions of interest (ROIs) in the outer, median and inner parts of the kidney, representing the cortex, outer and inner medulla, respectively. The ROIs were defined on the corresponding coronal proton image recorded prior to the sodium images, at the same spatial resolution. The average digitized pixel intensity for each ROI was measured, and the sodium gradient was assessed by averaging the ratio of the sodium signal intensity between the inner and the outer medulla, and between the inner medulla and the cortex. The results present average values for the number of measured kidneys±standard error. […] In this analysis, the signal intensity in each pixel was measured from the cortex to the inner medulla along the corticomedullary axis. This yielded a graph of pixel signal intensity versus the distance of the pixel from the cortex. […]"}},
  "data": [
    {"smiles": "NS(=O)(=O)c1cc(C(=O)O)c(NCc2ccco2)cc1Cl", "note": "[furosemide]", "values": [
      {"measurement": "sodium concentration in the outer medulla compared to control", "setting": "rat kidney [1]", "value": "decreased compared to control"},
      {"measurement": "total increase in sodium concentration in the cortex", "setting": "rat kidney [2]", "value": "27±1", "unit": "%"}
    ]}
  ]
}
